Results on four molecules are retold here after article PMC4478011.

Chains of the proteins cited; added tags and fusions are not shown. Lines headed by an entry give the natural chain unless they say otherwise; changes in a name come on top.
UniProt P06213: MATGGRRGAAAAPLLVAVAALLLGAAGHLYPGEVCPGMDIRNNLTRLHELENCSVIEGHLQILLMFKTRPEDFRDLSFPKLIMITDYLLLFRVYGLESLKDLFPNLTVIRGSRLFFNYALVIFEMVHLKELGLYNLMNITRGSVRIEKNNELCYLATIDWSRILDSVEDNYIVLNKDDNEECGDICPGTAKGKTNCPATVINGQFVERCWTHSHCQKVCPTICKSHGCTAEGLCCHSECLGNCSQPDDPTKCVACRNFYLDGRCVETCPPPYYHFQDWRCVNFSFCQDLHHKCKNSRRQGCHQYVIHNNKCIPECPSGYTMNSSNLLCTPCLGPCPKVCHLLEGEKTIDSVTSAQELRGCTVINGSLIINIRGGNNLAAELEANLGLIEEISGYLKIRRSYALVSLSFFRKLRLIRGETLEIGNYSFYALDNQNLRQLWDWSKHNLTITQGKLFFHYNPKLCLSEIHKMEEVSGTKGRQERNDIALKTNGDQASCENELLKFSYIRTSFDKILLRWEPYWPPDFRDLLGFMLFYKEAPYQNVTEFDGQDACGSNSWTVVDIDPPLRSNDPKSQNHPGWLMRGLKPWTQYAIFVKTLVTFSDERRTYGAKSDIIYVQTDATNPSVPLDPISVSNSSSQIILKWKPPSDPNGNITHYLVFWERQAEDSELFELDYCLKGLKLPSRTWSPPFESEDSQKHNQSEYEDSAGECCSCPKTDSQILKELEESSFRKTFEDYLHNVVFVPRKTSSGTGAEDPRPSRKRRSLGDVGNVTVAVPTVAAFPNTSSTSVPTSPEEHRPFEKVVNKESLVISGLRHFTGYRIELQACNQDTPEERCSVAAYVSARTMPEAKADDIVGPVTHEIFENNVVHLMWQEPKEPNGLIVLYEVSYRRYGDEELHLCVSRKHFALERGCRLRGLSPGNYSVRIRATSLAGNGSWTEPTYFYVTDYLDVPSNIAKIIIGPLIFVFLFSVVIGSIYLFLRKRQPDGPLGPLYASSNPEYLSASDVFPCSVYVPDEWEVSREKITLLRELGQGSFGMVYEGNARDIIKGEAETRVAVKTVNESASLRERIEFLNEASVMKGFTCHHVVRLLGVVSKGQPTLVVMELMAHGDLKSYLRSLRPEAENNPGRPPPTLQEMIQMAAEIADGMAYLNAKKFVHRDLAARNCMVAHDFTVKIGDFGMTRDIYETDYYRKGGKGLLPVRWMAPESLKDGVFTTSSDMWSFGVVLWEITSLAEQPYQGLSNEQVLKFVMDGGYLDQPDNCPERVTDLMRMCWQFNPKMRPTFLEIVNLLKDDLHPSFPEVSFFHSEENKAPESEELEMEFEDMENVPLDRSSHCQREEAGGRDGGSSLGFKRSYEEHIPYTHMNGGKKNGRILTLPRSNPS
UniProt P15208: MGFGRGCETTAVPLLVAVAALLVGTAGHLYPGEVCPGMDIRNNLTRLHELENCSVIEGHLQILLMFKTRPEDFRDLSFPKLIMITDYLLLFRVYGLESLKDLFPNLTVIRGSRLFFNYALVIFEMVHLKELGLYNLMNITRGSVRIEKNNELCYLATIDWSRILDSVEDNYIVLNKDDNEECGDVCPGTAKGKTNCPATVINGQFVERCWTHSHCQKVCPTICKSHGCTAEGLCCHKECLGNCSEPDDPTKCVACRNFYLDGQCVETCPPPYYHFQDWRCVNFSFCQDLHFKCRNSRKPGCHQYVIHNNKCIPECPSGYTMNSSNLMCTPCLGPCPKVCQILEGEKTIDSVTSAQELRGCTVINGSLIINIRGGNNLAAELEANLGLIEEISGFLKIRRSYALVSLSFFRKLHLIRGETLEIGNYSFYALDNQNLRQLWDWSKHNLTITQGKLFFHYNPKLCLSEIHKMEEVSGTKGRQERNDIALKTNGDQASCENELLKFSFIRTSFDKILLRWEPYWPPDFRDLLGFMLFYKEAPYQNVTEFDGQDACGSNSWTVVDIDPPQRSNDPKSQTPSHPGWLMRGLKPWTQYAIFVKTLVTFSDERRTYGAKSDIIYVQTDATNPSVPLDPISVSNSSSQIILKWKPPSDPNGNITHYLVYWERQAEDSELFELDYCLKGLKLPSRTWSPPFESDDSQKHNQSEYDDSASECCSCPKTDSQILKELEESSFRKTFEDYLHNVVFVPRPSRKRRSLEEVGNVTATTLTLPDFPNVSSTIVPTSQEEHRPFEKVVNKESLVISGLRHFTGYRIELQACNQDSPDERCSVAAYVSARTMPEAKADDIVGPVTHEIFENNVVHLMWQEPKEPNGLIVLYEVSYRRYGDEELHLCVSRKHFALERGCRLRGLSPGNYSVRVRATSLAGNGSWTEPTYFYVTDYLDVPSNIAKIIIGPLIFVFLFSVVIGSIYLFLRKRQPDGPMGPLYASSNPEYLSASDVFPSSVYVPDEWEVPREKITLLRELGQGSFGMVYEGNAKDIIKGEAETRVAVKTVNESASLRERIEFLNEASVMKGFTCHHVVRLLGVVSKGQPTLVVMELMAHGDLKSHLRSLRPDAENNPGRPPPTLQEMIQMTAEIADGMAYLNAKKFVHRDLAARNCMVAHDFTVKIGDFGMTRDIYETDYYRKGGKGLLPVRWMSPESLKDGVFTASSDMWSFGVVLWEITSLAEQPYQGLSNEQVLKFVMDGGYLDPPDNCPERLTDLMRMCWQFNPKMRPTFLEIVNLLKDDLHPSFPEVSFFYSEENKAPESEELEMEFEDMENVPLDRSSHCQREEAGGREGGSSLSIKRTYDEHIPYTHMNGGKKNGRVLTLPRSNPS

Results are given in words; binding and its absence hold for the method and conditions named. Binding seen in cells or lysates may run through a third protein. Some binding calls cover weakened binding; strength is not graded here. For part of these data: Where a sequence is shown, tags or fusion partners need not be part of it.

For assay [1], the target named is T1, Flag-tagged BBS17 (UniProt Q9NQ48).
T1 sequence: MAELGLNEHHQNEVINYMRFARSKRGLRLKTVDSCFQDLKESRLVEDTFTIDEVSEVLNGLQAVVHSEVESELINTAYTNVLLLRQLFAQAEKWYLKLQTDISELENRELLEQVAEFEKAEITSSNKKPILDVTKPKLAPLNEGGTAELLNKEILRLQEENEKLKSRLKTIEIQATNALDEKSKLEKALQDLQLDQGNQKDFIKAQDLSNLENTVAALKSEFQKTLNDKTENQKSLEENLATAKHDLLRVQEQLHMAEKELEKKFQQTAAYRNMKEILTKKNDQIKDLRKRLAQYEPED
Description: co-IP; lysates of HEK293T cells expressing GFP- or Flag-tagged BBS17; precipitation with IR antibody (endogenous IR) or by the tagged BBS17; IR detected by its β subunit.

The target in assay [2] is T2, GFP-tagged BBS17 (UniProt Q9NQ48).
T2 sequence: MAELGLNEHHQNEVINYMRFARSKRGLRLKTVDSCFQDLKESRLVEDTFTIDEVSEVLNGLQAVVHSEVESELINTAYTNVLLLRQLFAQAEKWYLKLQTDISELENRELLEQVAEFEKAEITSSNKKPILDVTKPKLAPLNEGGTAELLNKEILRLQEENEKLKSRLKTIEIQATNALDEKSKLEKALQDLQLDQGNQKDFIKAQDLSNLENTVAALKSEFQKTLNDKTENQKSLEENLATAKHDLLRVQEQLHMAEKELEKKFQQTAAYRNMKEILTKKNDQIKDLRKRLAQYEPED
The description is as above.

Assay [3] concerns the target T2, GFP-tagged BBS17. The experiment in a line: condition: only shRNA-mediated reduction in the expression of BBS1; co-IP; lysates of HEK293T cells with GFP-BBS17 and shRNA against Bbs1; GFP-BBS17 used to precipitate IR; IRβ blotted.
Assay [4] addresses insulin receptor (endogenous, HEK293T cells) (human (endogenous in HEK293T)) (UniProt P06213). The experiment in a line: co-IP; lysates of HEK293T cells expressing GFP- or Flag-tagged BBS17; precipitation with IR antibody (endogenous IR) or by the tagged BBS17; IR detected by its β subunit.
The target in assay [5] is insulin receptor (endogenous, mouse brain) (mouse (endogenous in mouse brain)) (UniProt P15208). The experiment in a line: co-IP; mouse brain lysates; endogenous IR (β subunit) used to pull down endogenous BBS17.

On to “insulin receptor (endogenous, HEK293T cells) (from UniProt P06213 28-758; P06213 763-1382)”, for which the binding result in assay [1] is “binds”; in assay [2] it was “binds”; in assay [3], “no binding”.

B1: GFP-tagged BBS17 (protein, UniProt Q9NQ48 1-299)
chain: MAELGLNEHHQNEVINYMRFARSKRGLRLKTVDSCFQDLKESRLVEDTFTIDEVSEVLNGLQAVVHSEVESELINTAYTNVLLLRQLFAQAEKWYLKLQTDISELENRELLEQVAEFEKAEITSSNKKPILDVTKPKLAPLNEGGTAELLNKEILRLQEENEKLKSRLKTIEIQATNALDEKSKLEKALQDLQLDQGNQKDFIKAQDLSNLENTVAALKSEFQKTLNDKTENQKSLEENLATAKHDLLRVQEQLHMAEKELEKKFQQTAAYRNMKEILTKKNDQIKDLRKRLAQYEPED
As for B1, in assay [4], the binding result is recorded as “binds”.

B2: Flag-tagged BBS17 (protein, UniProt Q9NQ48 1-299)
chain: MAELGLNEHHQNEVINYMRFARSKRGLRLKTVDSCFQDLKESRLVEDTFTIDEVSEVLNGLQAVVHSEVESELINTAYTNVLLLRQLFAQAEKWYLKLQTDISELENRELLEQVAEFEKAEITSSNKKPILDVTKPKLAPLNEGGTAELLNKEILRLQEENEKLKSRLKTIEIQATNALDEKSKLEKALQDLQLDQGNQKDFIKAQDLSNLENTVAALKSEFQKTLNDKTENQKSLEENLATAKHDLLRVQEQLHMAEKELEKKFQQTAAYRNMKEILTKKNDQIKDLRKRLAQYEPED
B2: the binding result in assay [4] was “binds”.

B3: BBS17 (endogenous, mouse brain) (protein, UniProt Q9JHQ5 1-299)
chain: MAELGLNEHHQNEVINYMRFARSKRGLRLKTVDSCFQDLKDSRLVEETFTIDEVSEVLNGLQAVVHSEVESELINTAYTNVLLLRQLFSQAEKWYLKLQTDISELENRELLEQVAEFEKAEFVSSSKKPIIDITKPKLVPINEGGTTELLNKEILRLQQENEKLKSRLKTIEIQAVNALDEKSKLERVLQDLQLDQENQQDLLKAQDLDDLENTVATLRSEFQKTLNDKTENQKSLEENLAAAKHDLLRVQEQLSMAEKELEKKFQQTAAYRNMKEILTKKNDQIKDLRKRLAKYESED
As to B3, the binding result in assay [5] is reported as “binds”.
